# PubChem BioAssay AID540256 (National Center for Advancing Translational Sciences (NCATS), 2011)
# About 3,700 (1.2%) of roughly 300,000 compounds were called active. This list was built around the results that the source calls inconclusive (neither active nor inactive); the mix of calls is not that of the screen. Calls come from the whole dose curve; tested in HEK293 cells. Potencies beside an inconclusive call are fits to weak or partial responses and may not hold up.
# Test: qHTS for Inhibitors of binding or entry into cells for Lassa Virus; note: nearly all actives have a fitted effect of over 50% in size
# Details: Lassa virus pseudotype entry inhibition, cell reporter; activity change, negative = inhibition: at 37.9 µM (top of the series) unless noted
# % is set by controls: 0 for no effect and ±100 for the full control effect; potency is the fitted concentration of half-maximal effect.
SMILES,Potency,"activity change, negative = inhibition"
CCCCn1c(N)c(N(CC(C)C)C(=O)c2cc(Cl)nc3ccccc23)c(=O)[nH]c1=O,"inconclusive: 5.62 µM [inhibitor, single point]",
Nc1ccc(-c2nnc(-c3ccc(N)cc3)o2)cc1,"inconclusive: 35.5 µM [inhibitor, single point]",
CCOc1ccc(/C=C/c2nc(C#N)c(NC(C)CC)o2)cc1 (centres undefined),,inactive: 0.655% [at 46.1 µM]
O=c1c2ccccc2nc(/C=C/c2ccc(Cl)cc2)n1CCO,"inconclusive: 25.1 µM [inhibitor, single point]",
Cc1nc2sc(C(=O)Nc3ccc(F)cc3)c(N)c2c(-c2ccc(Br)cc2)c1C(=O)Nc1ccc(Cl)cc1,,inactive: -0.272% [at 46.1 µM]
CCc1cccc(NC(=O)c2cnc(SC)nc2-c2ccccc2)c1,,inactive: 15.8% [at 46.1 µM]
CCOc1ccc(OCCC(=O)N(CCC2=CCCCC2)c2c(N)n(Cc3ccccc3)c(=O)[nH]c2=O)cc1,"inconclusive: 10 µM [inhibitor, partial curve, poor fit]",
CCOc1ccc(Cc2nnc(SCC(=O)c3ccc(OC)cc3)o2)cc1,"inconclusive: 23.1 µM [inhibitor, partial curve, poor fit]",
N=c1c(C(=O)NCc2ccco2)cc2c(=O)n3ccccc3nc2n1CCc1ccccc1,"inconclusive: 20 µM [inhibitor, single point]",
CNC(=O)C(=O)NCC1OCCN1S(=O)(=O)c1ccc(C)cc1 (centres undefined),,inactive: -8.44%
Cc1cc(C)c2nc(NC(=O)C3CCCO3)sc2c1 (centres undefined),"inconclusive: 0.708 µM [activator, single point]",
O=C(Nc1ccccc1)C1C2CCC3C(CCC21)C3(Cl)Cl (centres undefined),"inconclusive: 11.2 µM [inhibitor, partial curve, poor fit]",
O=C(NCC(c1ccco1)N1CCc2ccccc2C1)c1ccc([N+](=O)[O-])cc1 (centres undefined),,inactive: -0.488%
CCOc1ccccc1NC(=O)C1CCCN(c2c(CC)c(C)nc3ncnn23)C1 (centres undefined),"inconclusive: 35.5 µM [inhibitor, single point]",
N#Cc1ccc(-c2ccccc2)nc1Sc1ccc(F)cc1,,inactive: -20.4%
O=C(c1c(F)c(F)c(F)c(F)c1F)N1CCN(c2cccc(C(F)(F)F)c2)CC1,"inconclusive: 14.6 µM [inhibitor, single point]",
COc1ccccc1OCc1nc(C#N)c(N2CCCC2)o1,,inactive: -21.9%
COc1cccc(C=NCCNC(=O)c2nonc2N)c1O,,inactive: 0.669%
CC(C(=O)Nc1ccc(C(=O)O)cc1)N1C(=O)c2ccccc2C1=O (centres undefined),,inactive: -6.7%
Cc1ccc(C2CC(=O)N(Cc3ccccc3)c3c2c(C)nn3-c2nc(C)cc(C)n2)cc1 (centres undefined),,inactive: 0.818% [at 46.1 µM]
O=C(NP(=O)(N1CCCC1)N1CCCC1)C1=C(N2CCOCC2)/C(=C/c2cccc([N+](=O)[O-])c2)CC1,,inactive: 19.9%
O=C(N1CCC(n2nc(-c3ccccc3)oc2=O)CC1)C1(c2ccccc2)CC1,"inconclusive: 10 µM [inhibitor, partial curve, poor fit]",
CCc1ccc(NC(=O)CSc2nccn2-c2cccc(C)c2C)cc1,"inconclusive: 35.5 µM [inhibitor, single point]",

SMILES,Potency,"activity change, negative = inhibition"
CCc1ccc(NC(=O)c2ccc(F)c(S(=O)(=O)N(C)C3CCCCC3)c2)cc1,"inconclusive: 1 µM [inhibitor, full curve, poor fit]",
CCc1nc2ccccc2n(CC)c1=O,,inactive: 2.51%
CSCCC(NS(=O)(=O)c1ccc(C)cc1)C(=O)N1CCN(C(c2ccccc2)c2ccccc2)CC1 (centres undefined),active: 3.55 µM,
CC(/C=N/NC(=O)c1cc(-c2ccc3ccccc3c2)n[nH]1)=C\c1ccco1,"inconclusive: 35.5 µM [inhibitor, single point]",
O=c1cc(-c2ccc(F)cc2)nc(SCc2nc(-c3cccc(Cl)c3)no2)[nH]1,,inactive: 4.97% [at 46.1 µM]
CC1=C(C(=O)OCC(C)C)C(c2ccc(OCc3ccccc3)cc2)N2C(=O)CCSC2=N1 (centres undefined),"inconclusive: 20 µM [inhibitor, single point]",
CCOC(=O)N1CCc2c(sc3c2c(=O)n(Cc2ccccc2)c(=O)n3Cc2ccccc2F)C1,,inactive: 11.1%
COc1ccc(N2CC(C(=O)Nc3nnc(SCC(=O)NCc4ccco4)s3)CC2=O)cc1 (centres undefined),,inactive: 6.27%
COc1cccc(N2CCN(C(=O)c3cccc(N4C(=O)NC5CC4(C)Oc4c(OC)cccc45)c3)CC2)c1 (centres undefined),"inconclusive: 3.16 µM [inhibitor, partial curve, poor fit]",
O=C(O)Cn1c(Cc2ccccc2)nc2ccccc21,"inconclusive: 8.91 µM [activator, partial curve, poor fit]",
Cc1ccccc1OCc1ccc(-c2nc(C#N)c(N3CCN(C)CC3)o2)o1,"inconclusive: 11.2 µM [inhibitor, partial curve, poor fit]",
O=C(COC(=O)c1cccnc1Cl)NCc1ccc2c(c1)OCO2,,inactive: 1.04%
CCOC(=O)N1CCC(NC(=O)CCc2c(C)nc3c(c(C)nn3C(C)(C)C)c2C)CC1,"inconclusive: 18.3 µM [inhibitor, partial curve]",
CCOc1ccccc1C(=O)Nc1cc(C)ccc1NC(=O)c1ccco1,"inconclusive: 35.5 µM [activator, single point]",
CCn1cc(C2=NC(CCSC)CO2)c2ccccc21 (centres undefined),,inactive: 1.21%
COc1ccc(NC(=O)CCn2nc(-c3ccccc3OC)c3c(C)cc(C)nc32)cc1,"inconclusive: 35.5 µM [inhibitor, single point]",
CC(C)(C)OC(=O)NCCCCCc1nnc(SCc2ccccc2)o1,"inconclusive: 35.5 µM [inhibitor, single point]",
CCC(C(=O)N1CCN(c2ccccc2F)CC1)n1nc(C)c2sc3ccccc3c2c1=O (centres undefined),"inconclusive: 5.01 µM [activator, single point]",
O=C/C(=C\Nc1ccccn1)c1nc2ccccc2o1,,inactive: -13.7%
COc1cc(NC(=O)c2nc3ccccc3nc2C)cc(OC)c1OC,"inconclusive: 35.5 µM [inhibitor, single point]",
C=C(C)CCC(C)N1CCC(n2nccc2NC(=O)CCOc2ccccc2)CC1 (centres undefined),"inconclusive: 0.316 µM [activator, partial curve, poor fit]",
COC(=O)c1ccc(CSc2nc3ccccc3c(=O)n2-c2ccccc2)o1,"inconclusive: 35.5 µM [inhibitor, single point]",
Cc1ccc(C)c(CN2C(=O)C3(c4ccccc42)N(c2cccc(C(F)(F)F)c2)C(=O)CS3(=O)=O)c1 (centres undefined),"inconclusive: 17.8 µM [inhibitor, single point]",

SMILES,Potency,"activity change, negative = inhibition"
COc1cccc(C2C=C(c3ccc(OC)cc3OC)Nc3nnnn32)c1 (centres undefined),"inconclusive: 17.8 µM [inhibitor, partial curve, poor fit]",
Cc1cc(C)n(C(=O)c2ccc(Cl)c(F)c2F)n1,,inactive: 21.3%
O=C(c1cccs1)N(CC1CCCO1)c1nc(-c2ccccc2)cs1 (centres undefined),"inconclusive: 20.6 µM [inhibitor, single point]",
CCCN(CC(=O)NC(=O)NC1CCCCC1)CC(=O)Nc1cc(Cl)ccc1Cl,"inconclusive: 17.8 µM [inhibitor, single point]",
O=C1NC2c3c(Cl)sc(Cl)c3C(=O)C2O1 (centres undefined),,inactive: 3.36%
Cc1oc2nc(SCC(=O)Nc3ccc(S(N)(=O)=O)cc3)nc(NC(=O)c3ccccc3)c2c1C,"inconclusive: 16.4 µM [inhibitor, single point]",
Cc1cc(S(=O)(=O)NCc2ccccc2)ccc1OCC(=O)NCc1ccccn1,"inconclusive: 2.82 µM [inhibitor, single point]",
O=C1OCCC1Sc1nnc(-c2cccs2)n1Cc1ccccc1 (centres undefined),,inactive: 1.96%
O=C(O)CCCCCN1C(=O)/C(=C/c2cn(-c3ccccc3)nc2-c2cccs2)SC1=S,,inactive: -22% [at 46.1 µM]
Cc1nc(N2CCN(C(=O)c3ccc(Cl)cc3)CC2)c(C#N)c2c1COC(C)(C)C2,"inconclusive: 25.1 µM [inhibitor, single point]",
COCCCN1C(=O)C2C(C(=O)Nc3cccc(Cl)c3)C3C=CC2(O3)C1C(=O)NC1CCCCC1 (centres undefined),"inconclusive: 5.62 µM [inhibitor, single point]",
O=C(Cc1ccccc1)c1ccccc1C(=O)N1CCCCC1,,inactive: 1.1%
O=C(NC1CCc2ccccc21)c1cc(COc2cncc(Cl)c2)on1 (centres undefined),"inconclusive: 11.2 µM [inhibitor, single point]",
COc1ccc(CN(CCC(c2ccccc2)c2ccc(OC(C)C)cc2)C(=O)CCl)cc1OC (centres undefined),"inconclusive: 17.8 µM [inhibitor, single point]",
O=C(c1cccc(C(F)(F)F)c1)N1CCOC12CCN(c1ncc(C(F)(F)F)cc1Cl)CC2,"inconclusive: 12.6 µM [inhibitor, partial curve, poor fit]",
Cc1cccc(/C(N)=N/OC(=O)c2ccc3c(c2)OCO3)c1,"inconclusive: 35.5 µM [inhibitor, single point]",
CC(Sc1ncccn1)C(=O)Nc1ccc2c(c1)OCO2 (centres undefined),,inactive: -1.65%
COc1ccc(S(=O)(=O)Nc2cccc(-c3ccc(N4CCCCCC4)nn3)c2)cc1,,inactive: -13.9% [at 46.1 µM]
CC(=O)c1cccc(NC(=O)CSc2ccc(-c3ccccn3)nn2)c1,"inconclusive: 35.5 µM [inhibitor, single point]",
CCN(CC(=O)NCc1ccc(Cl)cc1)C(=O)/C=C/c1cc(OC)c(OC)c(OC)c1,"inconclusive: 12.6 µM [inhibitor, partial curve, poor fit]",
C/C(=N\NC(=S)Nc1cc(S(=O)(=O)N2CCOCC2)ccc1Cl)c1ccccc1F,"inconclusive: 18.4 µM [inhibitor, single point]",
Cc1ccc(C(=O)OCC(=O)NC2CCCC2)cc1C,,inactive: -20.6%
c1cc2c3c(cccc3c1)NC1(CCCCC1)N2,,inactive: 1.45%

# Rewritten with tabs: entries from further up.
SMILES	Potency	activity change, negative = inhibition
CCOc1ccc(Cc2nnc(SCC(=O)c3ccc(OC)cc3)o2)cc1	inconclusive: 23.1 µM [inhibitor, partial curve, poor fit]	
CCOc1ccccc1NC(=O)C1CCCN(c2c(CC)c(C)nc3ncnn23)C1 (centres undefined)	inconclusive: 35.5 µM [inhibitor, single point]	
N#Cc1ccc(-c2ccccc2)nc1Sc1ccc(F)cc1		inactive: -20.4%
CCc1ccc(NC(=O)CSc2nccn2-c2cccc(C)c2C)cc1	inconclusive: 35.5 µM [inhibitor, single point]	
CSCCC(NS(=O)(=O)c1ccc(C)cc1)C(=O)N1CCN(C(c2ccccc2)c2ccccc2)CC1 (centres undefined)	active: 3.55 µM	
CCOC(=O)N1CCc2c(sc3c2c(=O)n(Cc2ccccc2)c(=O)n3Cc2ccccc2F)C1		inactive: 11.1%
COc1cccc(N2CCN(C(=O)c3cccc(N4C(=O)NC5CC4(C)Oc4c(OC)cccc45)c3)CC2)c1 (centres undefined)	inconclusive: 3.16 µM [inhibitor, partial curve, poor fit]	
CCC(C(=O)N1CCN(c2ccccc2F)CC1)n1nc(C)c2sc3ccccc3c2c1=O (centres undefined)	inconclusive: 5.01 µM [activator, single point]	
CCCN(CC(=O)NC(=O)NC1CCCCC1)CC(=O)Nc1cc(Cl)ccc1Cl	inconclusive: 17.8 µM [inhibitor, single point]	
Cc1cc(S(=O)(=O)NCc2ccccc2)ccc1OCC(=O)NCc1ccccn1	inconclusive: 2.82 µM [inhibitor, single point]	
O=C(NC1CCc2ccccc21)c1cc(COc2cncc(Cl)c2)on1 (centres undefined)	inconclusive: 11.2 µM [inhibitor, single point]	
O=C(c1cccc(C(F)(F)F)c1)N1CCOC12CCN(c1ncc(C(F)(F)F)cc1Cl)CC2	inconclusive: 12.6 µM [inhibitor, partial curve, poor fit]	
Cc1cccc(/C(N)=N/OC(=O)c2ccc3c(c2)OCO3)c1	inconclusive: 35.5 µM [inhibitor, single point]	
CC(Sc1ncccn1)C(=O)Nc1ccc2c(c1)OCO2 (centres undefined)		inactive: -1.65%
